# Assay results: PMC5996148
# This is one part of the list.
# What was measured:
# Assay in all cases: protein microarray (ProtoArray v5.0), streptavidin-Alexa Fluor 647
# Details in all cases: 3'-biotin; 20 mM Tris (pH 7.5), 5 mM MgCl2, 100 mM KCl, 0.1% Tween-20, A/T-rich and random oligonucleotide blockers; temperature not stated; high values mean tight binding
# HTR5A (human) = system: HTR5A (human)
# HVCN1 (human) = system: HVCN1 (human)
# HYAL1 (human) = system: HYAL1 (human)
# HYPK (human) = system: HYPK (human)
# [1] = system: Heat shock protein HSP 90-alpha (human)
# [2] = system: Hematopoietic cell signal transducer (human)
# [3] = system: Hemoglobin subunit mu (human)
# [4] = system: Hexaprenyldihydroxybenzoate methyltransferase, mitochondrial (human)
# Hexokinase-3 (human) = system: Hexokinase-3 (human)
# [5] = system: High affinity cAMP-specific and IBMX-insensitive 3prime,5prime-cyclic phosphodiesterase 8A (human)
# [6] = system: Histidine ammonia-lyase (human)
# [7] = system: Histone chaperone ASF1B (human)
# [8] = system: Histone deacetylase 10 (human)
# [9] = system: Histone deacetylase 6 (human)
# [10] = system: Homeobox protein Hox-A9 (human)
# [11] = system: Homeobox protein Hox-B6 (human)
# [12] = system: Homeobox protein Meis1 (human)
# [13] = system: Homeobox protein PKNOX2 (human)
# [14] = system: Hsp90 co-chaperone Cdc37-like 1 (human)
# [15] = system: Huntingtin-interacting protein 1-related protein (human)
sequence,measurement,setting,value
GGGAGGCTGAGGCAGG [G4-1 biotinylated (PQS2)],binding signal,HTR5A (human),-0.321 z-score
same,binding signal,HVCN1 (human),-0.328 z-score
same,binding signal,HYAL1 (human),-0.324 z-score
same,binding signal,HYPK (human),-0.349 z-score
same,binding signal,[1],-0.292 z-score
same,binding signal,[2],-0.333 z-score
same,binding signal,[3],-0.372 z-score
same,binding signal,[4],-0.373 z-score
same,binding signal,Hexokinase-3 (human),-0.352 z-score
same,binding signal,[5],-0.315 z-score
same,binding signal,[6],-0.305 z-score
same,binding signal,[7],-0.317 z-score
same,binding signal,[8],-0.346 z-score
same,binding signal,[9],-0.351 z-score
same,binding signal,[10],-0.31 z-score
same,binding signal,[11],-0.338 z-score
same,binding signal,[12],-0.345 z-score
same,binding signal,[13],-0.319 z-score
same,binding signal,[14],-0.358 z-score
same,binding signal,[15],-0.339 z-score

# Quoted at random: 2 records from the list.
sequence,measurement,setting,value
GGGAGGCTGAGGCAGG [G4-1 biotinylated (PQS2)],binding signal,[10],-0.31 z-score
same,binding signal,[3],-0.372 z-score
